Part of at least one peptide drawing is inferred or uncertain, most often the ends. Some compounds share one wording; it may come from a single statement. Bridge positions count the residues as written; N and C are the ends. Square brackets hold non-standard residues; d marks the D form. Ends that are not written are not given here. Peptide text beside a SMILES is read from it. I, II: the chains in the order shown. βAla = NCCC(=O)O
Tests used:
[1] = test system: GalCer; assay: HPTLC binding assay: binding of gp120 to GalCer; conditions: MBPCs 10^-4M in the HPTLC assay
[2] = test system: HIV-1(LAI), HIV-1(NDK) or HIV-2(ROD); assay: Infection of HT-29 cells through the GalCer receptor; type: cell-based; conditions: MBPCs 5x10^-6M
[3] = test system: HIV; assay: Inhibition of HIV infection of CD4+ cells and of HIV induced syncytia formation (text summary, strains not separated); type: cell-based, HIV-1 and HIV-2
[4] = test system: RT-deficient HIV-I(IIIB) isolate; assay: Inhibition of HIV-I induced cell fusion (8E5 cells co-cultivated with PHA stimulated human PBLs); type: cell-based; conditions: for Inhibition of HIV-I induced cell fusion (number of syncytia): after 24 hours
Source text: 50 x 10^3 8E5 cells chronically infected with a RT-deficient HIV-I(IIIB) isolate, were co-cultivated with 150 x 10^3 phytohemagglutinin (PHA) stimulated human peripheral blood lymphocytes (PBLs) in the presence of the indicated peptide in 96-well plates. The MBPCs used are described by the peptides attached, and the number thereof, to a core lysine matrix, which is designated MLC. All amino acids used for this experiment were in dextro form.

[5] = test system: HIV-1Lai; assay: Syncytia formation blockage (chronically infected cells incubated with MBPCs, uninfected Molt-4 cells added); type: cell-based; design: key: -: The presence of syncytia is indicated by + signs, allocated in approximate proportion to the quantities counted.; The presence of syncytia is indicated by + signs, allocated in approximate proportion to the quantities counted.; ++: The presence of syncytia is indicated by + signs, allocated in approximate proportion to the quantities counted.; +++: The presence of syncytia is indicated by + signs, allocated in approximate proportion to the quantities counted.; ++++: The presence of syncytia is indicated by + signs, allocated in approximate proportion to the quantities counted; conditions: counted after 18 hours
[6] = test system: HIV-2Rod; assay: as above; type: cell-based; design: key: -: The presence of syncytia is indicated by + signs, allocated in approximate proportion to the quantities counted.; The presence of syncytia is indicated by + signs, allocated in approximate proportion to the quantities counted.; ++: The presence of syncytia is indicated by + signs, allocated in approximate proportion to the quantities counted.; +++: The presence of syncytia is indicated by + signs, allocated in approximate proportion to the quantities counted.; ++++: The presence of syncytia is indicated by + signs, allocated in approximate proportion to the quantities counted; conditions: counted after 18 hours
[7] = test system: HIV-1MN; assay: as above; type: cell-based; design: key: -: The presence of syncytia is indicated by + signs, allocated in approximate proportion to the quantities counted.; The presence of syncytia is indicated by + signs, allocated in approximate proportion to the quantities counted.; ++: The presence of syncytia is indicated by + signs, allocated in approximate proportion to the quantities counted.; +++: The presence of syncytia is indicated by + signs, allocated in approximate proportion to the quantities counted.; ++++: The presence of syncytia is indicated by + signs, allocated in approximate proportion to the quantities counted; conditions: counted after 18 hours

C[C@H](NC(=O)[C@H](CCCNC(=N)N)NC(=O)CNC(=O)[C@@H]1CCCN1C(=O)CN)C(=O)N[C@@H](Cc1ccccc1)C(=O)NCCCC[C@H](NC(=O)[C@H](Cc1ccccc1)NC(=O)[C@H](C)NC(=O)[C@H](CCCNC(=N)N)NC(=O)CNC(=O)[C@@H]1CCCN1C(=O)CN)C(=O)NCCCC[C@H](NC(=O)[C@H](CCCCNC(=O)[C@H](Cc1ccccc1)NC(=O)[C@H](C)NC(=O)[C@H](CCCNC(=N)N)NC(=O)CNC(=O)[C@@H]1CCCN1C(=O)CN)NC(=O)[C@H](Cc1ccccc1)NC(=O)[C@H](C)NC(=O)[C@H](CCCNC(=N)N)NC(=O)CNC(=O)[C@@H]1CCCN1C(=O)CN)C(=O)NCCCC[C@H](NC(=O)[C@H](CCCCNC(=O)[C@H](CCCCNC(=O)[C@H](Cc1ccccc1)NC(=O)[C@H](C)NC(=O)[C@H](CCCNC(=N)N)NC(=O)CNC(=O)[C@@H]1CCCN1C(=O)CN)NC(=O)[C@H](Cc1ccccc1)NC(=O)[C@H](C)NC(=O)[C@H](CCCNC(=N)N)NC(=O)CNC(=O)[C@@H]1CCCN1C(=O)CN)NC(=O)[C@H](CCCCNC(=O)[C@H](Cc1ccccc1)NC(=O)[C@H](C)NC(=O)[C@H](CCCNC(=N)N)NC(=O)CNC(=O)[C@@H]1CCCN1C(=O)CN)NC(=O)[C@H](Cc1ccccc1)NC(=O)[C@H](C)NC(=O)[C@H](CCCNC(=N)N)NC(=O)CNC(=O)[C@@H]1CCCN1C(=O)CN)C(=O)NCCCC[C@H](NC(=O)[C@H](CCCCNC(=O)[C@H](CCCCNC(=O)[C@H](CCCCNC(=O)[C@H](Cc1ccccc1)NC(=O)[C@H](C)NC(=O)[C@H](CCCNC(=N)N)NC(=O)CNC(=O)[C@@H]1CCCN1C(=O)CN)NC(=O)[C@H](Cc1ccccc1)NC(=O)[C@H](C)NC(=O)[C@H](CCCNC(=N)N)NC(=O)CNC(=O)[C@@H]1CCCN1C(=O)CN)NC(=O)[C@H](CCCCNC(=O)[C@H](Cc1ccccc1)NC(=O)[C@H](C)NC(=O)[C@H](CCCNC(=N)N)NC(=O)CNC(=O)[C@@H]1CCCN1C(=O)CN)NC(=O)[C@H](Cc1ccccc1)NC(=O)[C@H](C)NC(=O)[C@H](CCCNC(=N)N)NC(=O)CNC(=O)[C@@H]1CCCN1C(=O)CN)NC(=O)[C@H](CCCCNC(=O)[C@H](CCCCNC(=O)[C@H](Cc1ccccc1)NC(=O)[C@H](C)NC(=O)[C@H](CCCNC(=N)N)NC(=O)CNC(=O)[C@@H]1CCCN1C(=O)CN)NC(=O)[C@H](Cc1ccccc1)NC(=O)[C@H](C)NC(=O)[C@H](CCCNC(=N)N)NC(=O)CNC(=O)[C@@H]1CCCN1C(=O)CN)NC(=O)[C@H](CCCCNC(=O)[C@H](Cc1ccccc1)NC(=O)[C@H](C)NC(=O)[C@H](CCCNC(=N)N)NC(=O)CNC(=O)[C@@H]1CCCN1C(=O)CN)NC(=O)[C@H](Cc1ccccc1)NC(=O)[C@H](C)NC(=O)[C@H](CCCNC(=N)N)NC(=O)CNC(=O)[C@@H]1CCCN1C(=O)CN)C(=O)NCCC(=O)O [MBPC.12, (GPGRAF)16-(K)8-(K)4-(K)2-K-βA-OH]
binding to the GalCer receptor / inhibition of gp120 binding to GalCer [1]: bind | infectivity of HIV on human colon cells (HT-29) [2]: completely block | in vitro inhibiting effect on syncytia formation induced by HIV (in words) [3]: results similar to those of MBPC.3 | MBPC concentrations with which inhibiting effects were observed in vitro ([3]; syncytia formation induced by HIV / HIV infection of CD4^+ cells): around 10^-6 M

RAFVTIGK [reference compound]
Inhibition of HIV-I induced cell fusion (number of syncytia) ([4]; Concentration (M) 5x10^-5): - (- indicates the total absence of syncytia in the well) | Inhibition of HIV-I induced cell fusion (number of syncytia) ([4]; Concentration (M) 5 x10^-6): +++ | Inhibition of HIV-I induced cell fusion (number of syncytia) ([4]; Concentration (M) 5x10^-7): +++

GPGRAF [Mono.3, GPGRAF, reference compound]
Inhibition of HIV-I induced cell fusion (number of syncytia) ([4]; Concentration (M) 5x10^-5): +++ | Inhibition of HIV-I induced cell fusion (number of syncytia) ([4]; Concentration (M) 5 x10^-6): +++ | Inhibition of HIV-I induced cell fusion (number of syncytia) ([4]; Concentration (M) 5x10^-7): +++ | inhibition of syncytia formation (in words) ([4]; range of concentration used (up to 5x10^-5M)): not active

C[C@H](NC(=O)[C@@H](CCCNC(=N)N)NC(=O)CNC(=O)[C@@H]1CCCN1C(=O)CN)C(=O)N[C@@H](Cc1ccccc1)C(=O)NCCCC[C@H](NC(=O)[C@H](Cc1ccccc1)NC(=O)[C@H](C)NC(=O)[C@@H](CCCNC(=N)N)NC(=O)CNC(=O)[C@@H]1CCCN1C(=O)CN)C(=O)NCCCC[C@H](NC(=O)[C@H](CCCCNC(=O)[C@H](Cc1ccccc1)NC(=O)[C@H](C)NC(=O)[C@@H](CCCNC(=N)N)NC(=O)CNC(=O)[C@@H]1CCCN1C(=O)CN)NC(=O)[C@H](Cc1ccccc1)NC(=O)[C@H](C)NC(=O)[C@@H](CCCNC(=N)N)NC(=O)CNC(=O)[C@@H]1CCCN1C(=O)CN)C(=O)NCCCC[C@H](NC(=O)[C@H](CCCCNC(=O)[C@H](CCCCNC(=O)[C@H](Cc1ccccc1)NC(=O)[C@H](C)NC(=O)[C@@H](CCCNC(=N)N)NC(=O)CNC(=O)[C@@H]1CCCN1C(=O)CN)NC(=O)[C@H](Cc1ccccc1)NC(=O)[C@H](C)NC(=O)[C@@H](CCCNC(=N)N)NC(=O)CNC(=O)[C@@H]1CCCN1C(=O)CN)NC(=O)[C@H](CCCCNC(=O)[C@H](Cc1ccccc1)NC(=O)[C@H](C)NC(=O)[C@@H](CCCNC(=N)N)NC(=O)CNC(=O)[C@@H]1CCCN1C(=O)CN)NC(=O)[C@H](Cc1ccccc1)NC(=O)[C@H](C)NC(=O)[C@@H](CCCNC(=N)N)NC(=O)CNC(=O)[C@@H]1CCCN1C(=O)CN)C(=O)NCCC(=O)O [[GPG(R)DAF]8-MLC]
Inhibition of HIV-I induced cell fusion (number of syncytia) ([4]; Concentration (M) 5 x10^-6): - (- indicates the total absence of syncytia in the well) | Inhibition of HIV-I induced cell fusion (number of syncytia) ([4]; Concentration (M) 5x10^-7): +++

CC[C@H](C)[C@H](N)C(=O)NCC(=O)N1CCC[C@H]1C(=O)NCC(=O)N[C@@H](CCCNC(=N)N)C(=O)N[C@@H](C)C(=O)N[C@@H](Cc1ccccc1)C(=O)NCCCC[C@H](NC(=O)[C@H](Cc1ccccc1)NC(=O)[C@H](C)NC(=O)[C@H](CCCNC(=N)N)NC(=O)CNC(=O)[C@@H]1CCCN1C(=O)CNC(=O)[C@@H](N)[C@@H](C)CC)C(=O)NCCCC[C@H](NC(=O)[C@H](CCCCNC(=O)[C@H](Cc1ccccc1)NC(=O)[C@H](C)NC(=O)[C@H](CCCNC(=N)N)NC(=O)CNC(=O)[C@@H]1CCCN1C(=O)CNC(=O)[C@@H](N)[C@@H](C)CC)NC(=O)[C@H](Cc1ccccc1)NC(=O)[C@H](C)NC(=O)[C@H](CCCNC(=N)N)NC(=O)CNC(=O)[C@@H]1CCCN1C(=O)CNC(=O)[C@@H](N)[C@@H](C)CC)C(=O)NCCC(=O)O [MBPC.4, (IGPGRAF)4-(K)2-K-βA-OH] (I: H-IGPGRAFKK[βAla]-OH / II: H-IGPGRAFK / III: H-IGPGRAF / IV: H-IGPGRAF; amide I:8-IV:C, I:9-II:C, II:8-III:C)
Syncytia formation ([5]; MBPC Conc. 5x10^-6M): +++ | Syncytia formation ([5]; MBPC Conc. 10^-6M): ++++ | Syncytia formation ([5]; MBPC Conc. 10^-7M): ++++ | Syncytia formation ([6]; MBPC Conc. 5x10^-6M): ++++ | Syncytia formation ([6]; MBPC Conc. 10^-6M): ++++ | Syncytia formation ([6]; MBPC Conc. 10^-7M): ++++ | Syncytia formation ([7]; MBPC Conc. 5x10^-6M): ++++ | Syncytia formation ([7]; MBPC Conc. 10^-6M): ++++ | Syncytia formation ([7]; MBPC Conc. 10^-7M): +++

Reference: EP0719281B1, “MULTIPLE BRANCH PEPTIDE CONSTRUCTIONS FOR USE AGAINST HIV” (priority 1993, dated 1995)
